The values below come from the supplement of paper PMC4604168 (melanoma cell lines).

This is one part of the list. Repeats are few or missing, and single values can be far off.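 Cells were imaged in 1,536-well plates, and nuclei stained with an antibody against cleaved PARP were counted against all DNA-stained nuclei to give the apoptosis fraction. Screening doses were chosen to leave most cells alive, and resting and induced cleaved-PARP levels differ strongly between cell lines.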

The test system of one assay is WM1716. Put plainly: cleaved PARP positive nuclei fraction relative to DMSO control; melanoma cells; higher = more apoptosis. Conditions: library dose: low library concentration; 72 h.
For `Cc1cc(Nc2cc(N3CCN(C)CC3)nc(/C=C/c3ccccc3)n2)n[nH]1` + COC(=O)c1sccc1S(=O)(=O)Nc1ccc(Nc2ccccc2)cc1OC [GSK0660] (first compound 0.04 µM, partner dose 1 µM), the “cleaved PARP positive nuclei fraction” value turned out to be 52.5%.

In the case of `CC(C)C[C@H](NC(=O)[C@H](Cc1ccccc1)NC(=O)c1cnccn1)B(O)O` [Bortezomib] + Cc1cc([N+](=O)[O-])ccc1NS(=O)(=O)c1cc(Cl)ccc1Cl [FH535] (first compound 0.001 µM, partner dose 1 µM), the “cleaved PARP positive nuclei fraction” value is 359%.

With `CC(C)C[C@H](NC(=O)[C@H](Cc1ccccc1)NC(=O)c1cnccn1)B(O)O` [Bortezomib] + O=C(CCCCCCC(=O)Nc1ccccc1)NO [vorinostat] (first compound 0.001 µM, partner dose 0.08 µM), the “cleaved PARP positive nuclei fraction” value was 343%.

Consider `Nc1ncn([C@H]2C[C@H](O)[C@@H](CO)O2)c(=O)n1` [decitabine] + COc1ccc2c(c1)CCC1C2CCC2(C)C(NCCCCCCN3C(=O)C=CC3=O)CCC12 [U73122] (first compound 0.1 µM, partner dose 0.4 µM), for which the “cleaved PARP positive nuclei fraction” value came out at 57.7%.

The test system of a further assay is WM1745. Described as above. Conditions: library dose: low library concentration; 72 h.
Take `Nc1ncn([C@H]2C[C@H](O)[C@@H](CO)O2)c(=O)n1` [decitabine] + COc1ccc(-c2ccc3c(N4CCOCC4)nc(N4C[C@@H](C)O[C@@H](C)C4)nc3n2)cc1CO [KU0063794] (first compound 0.1 µM, partner dose 0.02 µM): the “cleaved PARP positive nuclei fraction” value was 104%.

Take `CS(=O)(=O)CCNCc1ccc(-c2ccc3ncnc(Nc4ccc(OCc5cccc(F)c5)c(Cl)c4)c3c2)o1` [lapatinib] + O=S(=O)(c1ccccc1)N(CC(F)(F)F)c1ccc(C(O)(C(F)(F)F)C(F)(F)F)cc1 [T0901317] (first compound 0.8 µM, partner dose 1.4 µM): the “cleaved PARP positive nuclei fraction” value turned out to be 94.4%.

Turning to `Nc1ccn([C@@H]2O[C@H](CO)[C@@H](O)C2(F)F)c(=O)n1` [gemcitabine] + CC1(C)NC(=O)N(c2ccc([N+](=O)[O-])c(C(F)(F)F)c2)C1=O [nilutamide] (first compound 0.0004 µM, partner dose 1 µM), the “cleaved PARP positive nuclei fraction” value amounted to 114%.

For the compound `CCCS(=O)(=O)Nc1ccc(F)c(C(=O)c2c[nH]c3ncc(Cl)cc23)c1F` + O=C1NC(=O)/C(=C/c2ccc(-c3ccc(F)cc3O)o2)S1 [AS252424] (first compound 0.08 µM, partner dose 1 µM), the “cleaved PARP positive nuclei fraction” value was 105%.

As for `CNC(=O)c1cc(Oc2ccc(NC(=O)Nc3ccc(Cl)c(C(F)(F)F)c3)cc2)ccn1` [sorafenib] + C[C@@H]1CCN(C(=O)CC#N)C[C@@H]1N(C)c1ncnc2[nH]ccc12 [CP690550] (first compound 0.4 µM, partner dose 1 µM), the “cleaved PARP positive nuclei fraction” value was 96.4%.

Turning to `Cc1cc(Nc2cc(N3CCN(C)CC3)nc(/C=C/c3ccccc3)n2)n[nH]1` + CN(C)S(=O)(=O)c1ccc2c(c1)/C(=C/c1cc3c([nH]1)CCCC3)C(=O)N2 [SU6656] (first compound 0.04 µM, partner dose 0.4 µM), the “cleaved PARP positive nuclei fraction” value turned out to be 101%.

Turning to `Nc1ncn([C@H]2C[C@H](O)[C@@H](CO)O2)c(=O)n1` [decitabine] + CCCCCCCCCCCC1=C(O)C(=O)C=C(O)C1=O [Embelin] (first compound 0.1 µM, partner dose 1.2 µM), the “cleaved PARP positive nuclei fraction” value was found to be 92.1%.

For the compound `Nc1nc(F)nc2c1ncn2[C@@H]1O[C@H](CO)[C@@H](O)[C@@H]1O` [fludarabine] + CCCCCCCCCCCC1=C(O)C(=O)C=C(O)C1=O [Embelin] (first compound 0.2 µM, partner dose 1.2 µM), the “cleaved PARP positive nuclei fraction” value came out at 73.9%.

For `O=C(O)c1ccc2c(c1)nc(Nc1cccc(Cl)c1)c1ccncc12` + COc1ccc2c(c1)CCC1C2CCC2(C)C(NCCCCCCN3C(=O)C=CC3=O)CCC12 [U73122] (first compound 0.4 µM, partner dose 0.4 µM), the “cleaved PARP positive nuclei fraction” value was determined as 198%.

Regarding `Nc1ccn([C@@H]2O[C@H](CO)[C@@H](O)C2(F)F)c(=O)n1` [gemcitabine] + CO[C@@H]1[C@H](N(C)C(=O)c2ccccc2)C[C@H]2O[C@]1(C)n1c3ccccc3c3c4c(c5c6ccccc6n2c5c31)C(=O)NC4 [Midostaurin] (first compound 0.0004 µM, partner dose 0.08 µM), the “cleaved PARP positive nuclei fraction” value is 135%.

Regarding `CN1CCN(c2ccc3nc(-c4c(N)c5c(F)cccc5[nH]c4=O)[nH]c3c2)CC1` [Dovitinib] + O=C(O)C(=O)Nc1sc2c(c1C(=O)O)CCNC2 [TCS401] (first compound 0.1 µM, partner dose 1.66667 µM), the “cleaved PARP positive nuclei fraction” value was 102%.
